How the values were obtained:
Leukemia cell lines = details: Leukemia subpanel
SF-539 = details: SF-539, CNS Cancer
DU-145 = details: DU-145, Prostate Cancer
786-0 = details: 786-0, Renal Cancer
ACHN = details: Renal Cancer
HOP-62 = details: HOP-62, NSCLC
UACC-62 = details: UACC-62, Melanoma
KM12 = details: KM12, Colon cancer
SK-OV-3 = details: SK-OV-3, Ovarian Cancer
HL-60 (TB) = details: Leukemia
UO-31 = details: UO-31, Renal Cancer
[1] = system: Prostate Cancer cell lines; details: Prostate Cancer subpanel
UACC-257 = details: UACC-257, Melanoma
NCI-H460 = details: NCI-H460, NSCLC
A549/ATCC = format: cell-based; details: NSCLC
SK-MEL-28 = details: SK-MEL-28, Melanoma
SW-620 = details: SW-620, Colon cancer
MDA-MB-231/ATCC = details: Breast Cancer
HT29 = details: HT29, Colon cancer
OVCAR-8 = details: OVCAR-8, Ovarian Cancer
Breast Cancer cell lines = details: Breast Cancer subpanel
PC-3 = details: PC-3, Prostate Cancer
COLO 205 = format: cell-based; details: COLO 205, Colon cancer
CCRF-CEM = details: Leukemia
NCI/ADR-RES = details: Breast Cancer
RXF 393 = details: RXF 393, Renal Cancer
MOLT-4 = details: MOLT-4, Leukemia
SN12C = details: Renal Cancer
MDA-MB-435 = details: MDA-MB-435, Breast Cancer
TK-10 = details: TK-10, Renal Cancer
RPMI-8226 = details: RPMI-8226, Leukemia

Q: “Ethyl(Z)-4-(3-(4-chloro-2-((6-oxothiazolo[3,2-b][1,2,4]triazol-5(6H)-ylidene)methyl)phenyl)propanamido)benzoate [Compound 2i]” was tested. Which “SI (GI50)” value (Leukemia cell lines) did it give?
A: Its value is 0.97.

Q: What about the “SI (LC50)” value (Leukemia cell lines) of the same substance?
A: The value was 0.64.

Q: And the “SI (TGI)” value (Leukemia cell lines)?
A: Its value is 0.55.

Q: What about the “SI (GI50)” value (SF-539) of the same substance?
A: The value was 0.87.

Q: And the “SI (LC50)” value (SF-539)?
A: Its value is 1.26.

Q: And the “SI (TGI)” value (SF-539)?
A: The value was 1.12.

Q: And the “SI (GI50)” value (DU-145)?
A: Its value is 2.75.

Q: And the “SI (LC50)” value (DU-145)?
A: Its value is 1.74.

Q: And the “SI (TGI)” value (DU-145)?
A: Its value is 1.74.

Q: What about the “SI (GI50)” value (786-0) of the same substance?
A: Its value is 0.98.

Q: What about the “SI (LC50)” value (786-0) of the same substance?
A: The value was 1.23.

Q: What about the “SI (TGI)” value (786-0) of the same substance?
A: Its value is 1.17.

Q: And the “SI (GI50)” value (ACHN)?
A: Its value is 0.71.

Q: What about the “SI (LC50)” value (ACHN) of the same substance?
A: The value was 1.17.

Q: What about the “SI (TGI)” value (ACHN) of the same substance?
A: The value was 0.97.

Q: What about the “SI (GI50)” value (HOP-62) of the same substance?
A: Its value is 0.83.

Q: What about the “SI (LC50)” value (HOP-62) of the same substance?
A: The value was 1.17.

Q: What about the “SI (TGI)” value (HOP-62) of the same substance?
A: Its value is 1.05.

Q: What about the “SI (GI50)” value (UACC-62) of the same substance?
A: The value was 0.79.

Q: And the “SI (LC50)” value (UACC-62)?
A: Its value is 1.23.

Q: What about the “SI (TGI)” value (UACC-62) of the same substance?
A: The value was 1.07.

Q: And the “SI (GI50)” value (KM12)?
A: Its value is 1.07.

Q: What about the “SI (LC50)” value (KM12) of the same substance?
A: The value was 1.15.

Q: What about the “SI (TGI)” value (KM12) of the same substance?
A: Its value is 1.17.

Q: What about the “SI (GI50)” value (SK-OV-3) of the same substance?
A: Its value is 0.55.

Q: And the “SI (LC50)” value (SK-OV-3)?
A: The value was 1.02.

Q: And the “SI (TGI)” value (SK-OV-3)?
A: The value was 0.79.

Q: And the “SI (GI50)” value (HL-60 (TB))?
A: Its value is 0.89.

Q: And the “SI (TGI)” value (HL-60 (TB))?
A: Its value is 0.68.

Q: And the “SI (GI50)” value (UO-31)?
A: The value was 0.72.

Q: What about the “SI (LC50)” value (UO-31) of the same substance?
A: Its value is 1.15.

Q: And the “SI (TGI)” value (UO-31)?
A: The value was 0.95.

Q: What about the “SI (GI50)” value [1] of the same substance?
A: The value was 1.44.

Q: And the “SI (LC50)” value [1]?
A: Its value is 0.93.

Q: What about the “SI (TGI)” value [1] of the same substance?
A: Its value is 1.04.

Q: What about the “SI (GI50)” value (UACC-257) of the same substance?
A: Its value is 1.05.

Q: What about the “SI (LC50)” value (UACC-257) of the same substance?
A: Its value is 1.00.

Q: What about the “SI (TGI)” value (UACC-257) of the same substance?
A: Its value is 1.09.

Q: And the “SI (GI50)” value (NCI-H460)?
A: Its value is 0.81.

Q: And the “SI (LC50)” value (NCI-H460)?
A: The value was 1.12.

Q: What about the “SI (TGI)” value (NCI-H460) of the same substance?
A: Its value is 1.02.

Q: And the “SI (GI50)” value (A549/ATCC)?
A: The value was 0.56.

Q: And the “SI (LC50)” value (A549/ATCC)?
A: The value was 0.79.

Q: And the “SI (TGI)” value (A549/ATCC)?
A: The value was 0.71.

Q: What about the “SI (GI50)” value (SK-MEL-28) of the same substance?
A: The value was 0.91.

Q: What about the “SI (LC50)” value (SK-MEL-28) of the same substance?
A: Its value is 1.29.

Q: What about the “SI (TGI)” value (SK-MEL-28) of the same substance?
A: The value was 1.18.

Q: And the “SI (GI50)” value (SW-620)?
A: The value was 1.10.

Q: And the “SI (LC50)” value (SW-620)?
A: The value was 1.35.

Q: What about the “SI (TGI)” value (SW-620) of the same substance?
A: Its value is 1.32.

Q: What about the “SI (GI50)” value (MDA-MB-231/ATCC) of the same substance?
A: Its value is 0.89.

Q: And the “SI (TGI)” value (MDA-MB-231/ATCC)?
A: The value was 1.05.

Q: What about the “SI (GI50)” value (HT29) of the same substance?
A: Its value is 0.91.

Q: What about the “SI (LC50)” value (HT29) of the same substance?
A: The value was 1.29.

Q: And the “SI (TGI)” value (HT29)?
A: Its value is 1.15.

Q: And the “SI (GI50)” value (OVCAR-8)?
A: The value was 0.81.

Q: And the “SI (LC50)” value (OVCAR-8)?
A: Its value is 0.74.

Q: What about the “SI (TGI)” value (OVCAR-8) of the same substance?
A: The value was 0.83.

Q: What about the “SI (GI50)” value (Breast Cancer cell lines) of the same substance?
A: The value was 1.13.

Q: And the “SI (LC50)” value (Breast Cancer cell lines)?
A: Its value is 0.86.

Q: What about the “SI (TGI)” value (Breast Cancer cell lines) of the same substance?
A: The value was 0.93.

Q: What about the “SI (GI50)” value (PC-3) of the same substance?
A: The value was 0.98.

Q: What about the “SI (TGI)” value (PC-3) of the same substance?
A: The value was 0.74.

Q: And the “SI (GI50)” value (COLO 205)?
A: Its value is 0.74.

Q: What about the “SI (LC50)” value (COLO 205) of the same substance?
A: Its value is 0.93.

Q: What about the “SI (TGI)” value (COLO 205) of the same substance?
A: The value was 0.89.

Q: What about the “SI (GI50)” value (CCRF-CEM) of the same substance?
A: Its value is 3.81.

Q: What about the “SI (TGI)” value (CCRF-CEM) of the same substance?
A: Its value is 2.82.

Q: What about the “SI (GI50)” value (NCI/ADR-RES) of the same substance?
A: The value was 0.50.

Q: What about the “SI (TGI)” value (NCI/ADR-RES) of the same substance?
A: Its value is 0.42.

Q: What about the “SI (GI50)” value (RXF 393) of the same substance?
A: The value was 1.91.

Q: What about the “SI (LC50)” value (RXF 393) of the same substance?
A: Its value is 1.07.

Q: And the “SI (TGI)” value (RXF 393)?
A: The value was 1.31.

Q: And the “SI (GI50)” value (MOLT-4)?
A: Its value is 0.60.

Q: What about the “SI (TGI)” value (MOLT-4) of the same substance?
A: Its value is 0.54.

Q: What about the “SI (GI50)” value (SN12C) of the same substance?
A: Its value is 0.87.

Q: What about the “SI (LC50)” value (SN12C) of the same substance?
A: The value was 1.07.

Q: What about the “SI (TGI)” value (SN12C) of the same substance?
A: The value was 1.12.

Q: What about the “SI (GI50)” value (MDA-MB-435) of the same substance?
A: Its value is 1.05.

Q: And the “SI (TGI)” value (MDA-MB-435)?
A: The value was 1.12.

Q: And the “SI (GI50)” value (TK-10)?
A: The value was 0.67.

Q: And the “SI (LC50)” value (TK-10)?
A: Its value is 1.23.

Q: What about the “SI (TGI)” value (TK-10) of the same substance?
A: The value was 0.95.

Q: What about the “SI (GI50)” value (RPMI-8226) of the same substance?
A: The value was 2.04.

Q: And the “SI (LC50)” value (RPMI-8226)?
A: Its value is 0.66.

Q: What about the “SI (TGI)” value (RPMI-8226) of the same substance?
A: Its value is 1.09.
